Paper PMC9421128
No constants are given. Whether binding was seen depends on the method and setting. In cells and extracts the contact can be indirect. Some results given as binding are weak or reduced against the parent protein; the word gives no strength.

Chains of the proteins cited; added tags and fusions are not shown. Residues count along the entry.
UniProt O95786, residues 1-283: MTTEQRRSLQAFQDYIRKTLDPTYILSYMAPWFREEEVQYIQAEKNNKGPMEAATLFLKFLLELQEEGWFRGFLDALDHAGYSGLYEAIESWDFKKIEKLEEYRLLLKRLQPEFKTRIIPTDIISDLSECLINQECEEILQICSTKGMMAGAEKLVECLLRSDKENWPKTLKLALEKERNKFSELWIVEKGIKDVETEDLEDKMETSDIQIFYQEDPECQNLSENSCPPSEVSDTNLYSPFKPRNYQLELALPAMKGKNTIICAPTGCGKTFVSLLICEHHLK
UniProt Q14258: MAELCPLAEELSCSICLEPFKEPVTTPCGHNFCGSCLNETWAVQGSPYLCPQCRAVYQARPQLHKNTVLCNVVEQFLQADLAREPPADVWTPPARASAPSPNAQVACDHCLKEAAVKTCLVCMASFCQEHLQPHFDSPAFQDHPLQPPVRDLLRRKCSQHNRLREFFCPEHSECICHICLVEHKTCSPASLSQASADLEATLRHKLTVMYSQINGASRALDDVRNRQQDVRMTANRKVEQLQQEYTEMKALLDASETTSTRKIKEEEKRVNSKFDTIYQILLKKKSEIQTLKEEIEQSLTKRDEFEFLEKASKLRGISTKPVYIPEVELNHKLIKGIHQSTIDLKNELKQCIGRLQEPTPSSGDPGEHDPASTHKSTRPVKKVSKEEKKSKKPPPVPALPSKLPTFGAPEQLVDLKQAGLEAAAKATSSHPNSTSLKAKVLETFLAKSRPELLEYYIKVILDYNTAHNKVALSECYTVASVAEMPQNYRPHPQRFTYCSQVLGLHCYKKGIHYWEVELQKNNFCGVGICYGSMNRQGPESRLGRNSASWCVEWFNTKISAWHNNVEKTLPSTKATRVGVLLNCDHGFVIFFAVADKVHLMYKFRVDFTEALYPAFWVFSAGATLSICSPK
UniProt Q997F2: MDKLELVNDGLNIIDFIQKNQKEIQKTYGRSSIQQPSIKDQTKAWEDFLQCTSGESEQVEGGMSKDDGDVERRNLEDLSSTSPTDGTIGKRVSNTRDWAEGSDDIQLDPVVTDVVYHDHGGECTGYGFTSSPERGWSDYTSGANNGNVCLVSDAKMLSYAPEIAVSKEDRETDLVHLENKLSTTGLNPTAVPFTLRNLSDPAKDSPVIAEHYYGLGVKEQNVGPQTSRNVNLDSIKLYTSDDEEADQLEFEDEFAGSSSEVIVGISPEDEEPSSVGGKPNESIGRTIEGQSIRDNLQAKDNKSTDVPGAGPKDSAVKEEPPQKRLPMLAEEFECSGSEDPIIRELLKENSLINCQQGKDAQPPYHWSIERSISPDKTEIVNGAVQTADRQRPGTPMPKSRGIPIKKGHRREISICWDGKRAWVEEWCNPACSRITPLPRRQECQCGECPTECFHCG

Assays:
Experiment in all cases: co-IP
[1] = target: V5-tagged RIG-I CARD (V5-RIG-I CARD), expressed in HEK293T (human) (UniProt O95786)
[2] = target: V5-tagged TRIM25 (V5-TRIM25), expressed in HEK293T (human) (UniProt Q14258)
[3] = target: Nipah virus (NiV) V protein (Nipah virus) (UniProt Q997F2)

## FLAG-TRIM25, expressed in HEK293T (from UniProt Q14258 1-630) (enzyme)
[1]
  binding: binds

## FLAG-tagged RIG-I CARD (FLAG-RIG-I CARD), expressed in HEK293T (from UniProt O95786 1-283) (domain or fragment)
[2]
  binding: binds

## V5-tagged RIG-I CARD (V5-RIG-I CARD), expressed in HEK293T (from UniProt O95786 1-283) (domain or fragment)
[3]
  binding: binds

## V5-tagged TRIM25 (V5-TRIM25), expressed in HEK293T (from UniProt Q14258 1-630) (enzyme)
[3]
  binding: binds
